We go through 6 compounds from patent publication US6458872B1, “Benzotriazole UV absorbers having enhanced durability” (Ciba Specialty Chemicals Corporation, priority 1997, dated 2002).

A short description of data set [1]: Yellowness index of injection molded polycarbonate plaques, MAKROLON 2608-1000 (Example 76). The note with it: 0.3% UV absorber plus 0.08% Phosphite (Phosphite line: 0.08% alone), ASTM D-1925, average of ten plaques.
The nature of data set [2]: Color change of polycarbonate films, 2000 hours, ASTM G26 method C (Example 87). As to conditions: polycarbonate film about 1 mil, 5% by weight UV absorber, 2000 hours Xenon Arc, versus unexposed films.
Data set [3] in a line: Gloss retention of poly(butylene terephthalate) plaques, ASTM G26 method A, ASTM D523 (Example 85). The note with it: poly(butylene terephthalate) with 1.00% titanium dioxide; P 0.50%, S 0.60%; gloss at 60°.

As to `CC(C)(C)CC(C)(C)c1ccc(O)c(-n2nc3ccc(C(F)(F)F)cc3n2)c1` [BB, 5-trifluoromethyl-2-(2-hydroxy-5-tert-octylphenyl)-2H-benzotriazole], the “Yellowness Index” value in data set [1] worked out at 7.9.
The compound `CC(C)(C)CC(C)(C)c1cc(Cc2cc(C(C)(C)CC(C)(C)C)cc(-n3nc4ccccc4n3)c2O)c(O)c(-n2nc3ccccc3n2)c1` [Compound B, 2,2′-Methylene-bis[6-(2H-benzotriazol-2-yl)-4-tert-octylphenol]] came in with a ΔYI in data set [2] of 6.0.
Take `CC(C)(c1ccccc1)c1cc(-n2nc3ccccc3n2)c(O)c(C(C)(C)c2ccccc2)c1` [Compound P, 2-(2-hydroxy-3,5-di-α-cumylphenyl)-2H-benzotriazole]: the “Yellowness Index” value in data set [1] is 7.4. In addition, in data set [3], the “Gloss Retention % after 500 hrs exposure” value came out at 89% and the “Gloss Retention % after 750 hrs exposure” value was 65%.
In the case of `CC(C)(C)CC(C)(C)c1cc(Cc2cc(C(C)(C)CC(C)(C)C)cc(-n3nc4ccc(C(F)(F)F)cc4n3)c2O)c(O)c(-n2nc3ccc(C(F)(F)F)cc3n2)c1` [Example 43, 2,2′-Methylene-bis[6-(5-trifluoromethyl-2H-benzotriazol-2-yl)-4-tert-octylphenol]], in data set [2], the ΔYI was 4.4.
For `CC(C)(C)c1ccc(OP(Oc2ccc(C(C)(C)C)cc2C(C)(C)C)Oc2ccc(C(C)(C)C)cc2C(C)(C)C)c(C(C)(C)C)c1` [Phosphite, tris(2,4-di-tert-butylphenyl)phosphite], the “Yellowness Index” value in data set [1] stood at 4.5.
`CC(C)(C)CC(C)(C)c1cc(-n2nc3ccc(C(F)(F)F)cc3n2)c(O)c(C(C)(C)c2ccccc2)c1` [S, 5-trifluoromethyl-2-(2-hydroxy-3-α-cumyl-5-tert-octylphenyl)-2H-benzotriazole]: in data set [3], the “Gloss Retention % after 500 hrs exposure” value came to 94% and the “Gloss Retention % after 750 hrs exposure” value was determined as 82%.
